Experimental data as given in PubChem BioAssay AID488837 (National Center for Advancing Translational Sciences (NCATS), 2010).
About 20 (0.006%) of roughly 330,000 compounds were called active. Inconclusive means that the source gave no clear call. Such entries were picked first, then a sample of the others. Calls follow the shape of the dose curve; as a rule, active = well fitted inhibition curve with a large enough effect; inconclusive = small, poorly fitted or top-dose-only effect, or effect the other way; inactive = flat fitted curve, though single readings scatter. A potency beside an inconclusive call is a rough fit, not a confirmed value.

Sequences of proteins named here, by UniProt entry; tags and fusion partners are left off. A change or cut given only in a name is not applied to a line headed by its entry.
UniProt O00167: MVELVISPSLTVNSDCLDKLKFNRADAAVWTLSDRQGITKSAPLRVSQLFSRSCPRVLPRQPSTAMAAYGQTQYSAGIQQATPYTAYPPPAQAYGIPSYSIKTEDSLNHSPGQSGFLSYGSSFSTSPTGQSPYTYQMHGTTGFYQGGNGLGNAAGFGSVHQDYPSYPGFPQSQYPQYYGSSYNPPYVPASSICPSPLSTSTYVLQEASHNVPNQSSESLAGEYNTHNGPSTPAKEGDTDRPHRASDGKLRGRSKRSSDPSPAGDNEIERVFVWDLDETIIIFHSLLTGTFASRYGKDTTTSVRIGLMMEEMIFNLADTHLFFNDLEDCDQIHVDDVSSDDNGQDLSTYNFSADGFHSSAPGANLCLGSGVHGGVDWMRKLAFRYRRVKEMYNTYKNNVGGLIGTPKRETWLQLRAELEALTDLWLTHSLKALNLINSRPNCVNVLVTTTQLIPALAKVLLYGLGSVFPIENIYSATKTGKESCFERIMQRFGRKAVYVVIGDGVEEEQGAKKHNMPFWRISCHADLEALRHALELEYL

The compounds below were run against Protein phosphatase EYA2 (Homo sapiens) (UniProt O00167) (assay: qHTS Assay for Inhibitors of the Phosphatase Activity of Eya2). Settings: recombinant Eya2, OMFP fluorescence dephosphorylation (OMFP is methylfluorescein phosphate); activity, negative = inhibition: at 76.9 µM (top of the series) unless noted.
Method in brief: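 Eya2 protein (added as 0.2 uM solution) was preincubated with compound for 10 min at ambient temperature in 50 mM HEPES pH 7.5, 50 mM NaCl, 5 uM MgCl2, 0.05% BSA, 1 mM DTT. OMFP (added at 50 uM) then reacted 10 min; fluorescence read at 485/525 nm.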
% is scaled to controls: 0 for no effect and ±100 for the full control effect; potency is read from the fitted curve at half-maximal effect.

SMILES | Potency | activity, negative = inhibition
CC(=O)N/C(N)=N/c1nc2cc([N+](=O)[O-])ccc2o1 | inconclusive: 100 µM [inhibitor, single point] | –
COc1ccc(NC(=O)c2[nH]c(C)c(C(C)=O)c2C)cc1S(=O)(=O)Nc1ccc(Br)cc1 | inconclusive: 89.1 µM [inhibitor, single point] | –
COc1ccccc1N1C(=S)N=C(Nc2c(C)cccc2C)C12CCCC2 | inconclusive: 100 µM [inhibitor, single point] | –
COc1cc(O)c2c(=O)c(-c3ccc(O[C@@H]4O[C@H](CO)[C@@H](O)[C@H](O)[C@H]4O)cc3)coc2c1 | inactive | –
Cc1cc(OCc2cc(C(=O)N(C)C3CCOC3)no2)cc(C)c1Cl (centres undefined) | inactive | –
O=C1Nc2ccccc2C1Cc1ccccc1 (centres undefined) | inactive | –
C=CC1=C(C(=O)O)N2C(=O)C(NC(=O)Cc3ccccc3)C2SC1 (centres undefined) | inactive | –
O=S(=O)(c1ccc(Cl)cc1Cl)n1ccc2cccnc21 | inconclusive: 79.4 µM [inhibitor, partial curve, poor fit] | –
Cc1cc(N2CCOCC2)nc2ccc(NC(=S)NCCC(C)C)cc12 | inconclusive: 200 µM [inhibitor, partial curve] | –
CCOc1cc(C2NC(=O)NC(c3ccccc3)=C2C(C)=O)ccc1OC(C)=O (centres undefined) | inconclusive: 100 µM [inhibitor, single point] | –
CCN(CC)C(=O)CSc1nnc(-c2ccccc2)o1 | inconclusive: 50.1 µM [inhibitor, partial curve, poor fit] | –
Cc1cc(C)cc(NC(=O)c2cc(C)n(Cc3cccs3)c2C)c1 | inconclusive: 89.1 µM [inhibitor, single point] | –
COC(=O)CN1C(=O)C(O)=C(C(C)=O)C1c1ccc([N+](=O)[O-])cc1 (centres undefined) | inconclusive: 39.8 µM [inhibitor, partial curve] | –
Cc1cccc(Nc2nc(-c3ccc(F)c(C)c3)cs2)n1 | inconclusive: 251 µM [inhibitor, partial curve, poor fit] | –
COc1cc(NC(=O)c2nccnc2C(=O)O)cc(OC)c1 | inactive | –
CCOc1cccc2cc(C(=O)N3CC(C)OC(C)C3)c(=O)oc12 (centres undefined) | inconclusive: 22.4 µM [inhibitor, single point] | –
COc1ccc(NS(=O)(=O)c2cc3c(cc2C)N(C)CCO3)c(OC)c1 | inconclusive: 20 µM [inhibitor, single point] | –
O=C(CSCc1ccccn1)Nc1ccccc1 | inconclusive: 63.1 µM [inhibitor, single point] | –
COC1=C(OC)C(=O)c2ccccc2C1=O | inconclusive: 63.1 µM [inhibitor, partial curve] | –
COc1ccc(C2CC(=O)c3cnc(N4CCc5ccccc54)nc3C2)cc1OC (centres undefined) | inconclusive: 100 µM [inhibitor, single point] | –
CCCNC(=O)Cn1c(=O)n(CC(=O)N2CCCCC2)c(=O)c2sccc21 | inconclusive: 100 µM [inhibitor, single point] | –
CCc1nc2ccccc2c(C(=O)Nc2ccc(F)cc2)c1C | inactive | –

Already shown: an excerpt of the list.
SMILES | Potency | activity, negative = inhibition
COc1ccc(C2CC(=O)c3cnc(N4CCc5ccccc54)nc3C2)cc1OC (centres undefined) | inconclusive: 100 µM [inhibitor, single point] | –
CCCNC(=O)Cn1c(=O)n(CC(=O)N2CCCCC2)c(=O)c2sccc21 | inconclusive: 100 µM [inhibitor, single point] | –

Further compounds

SMILES | Potency | activity, negative = inhibition
Cc1ccc2c(c1)N(CCC(=O)NC1CCCCC1C)C(=O)CO2 (centres undefined) | inconclusive: 891 µM [inhibitor, partial curve, poor fit] | –
O=C(/C(=C/O)N=Nc1cccc(C(F)(F)F)c1)c1ccccc1 | inconclusive: 100 µM [inhibitor, single point] | –
CC(C)CCNC(=O)C1CCC(CNS(=O)(=O)c2ccc(Cl)cc2)CC1 (centres undefined) | inconclusive: 100 µM [inhibitor, single point] | –
O=C(CCC1CCN(C(=O)c2cccc(Cl)c2F)CC1)Nc1ccccc1 | inconclusive: 126 µM [inhibitor, single point] | –
CC(=O)Nc1ccc(-c2cc(-c3ccc(NC(C)=O)cc3)nc(-c3ccc(NC(C)=O)cc3)n2)cc1 | inactive | –
CC(C)Oc1cc(NC(=O)CS(=O)CC(=O)Nc2cccc(C(F)(F)F)c2)c(Cl)cc1Cl (centres undefined) | inconclusive: 1410 µM [inhibitor, single point] | –
CC(Oc1ccccc1)C(=O)Nc1nc(-c2ccncc2)cs1 (centres undefined) | inactive | –
COc1cc(OC)cc(C(=O)NCc2ccc(-n3cccc3)cc2)c1 | inconclusive: 79.4 µM [inhibitor, single point] | –
CCOc1cc(C)c(S(=O)(=O)NCc2ccccn2)cc1C | inconclusive: 100 µM [inhibitor, single point] | –
COc1ccc(/C=N/NC(=O)c2cc(C)oc2C)cc1OC | inconclusive: 89.1 µM [inhibitor, single point] | –
Cc1cccc[n+]1CC(=O)c1ccccc1 | inconclusive: 25.1 µM [inhibitor, single point] | –
CCOc1ccccc1-n1nnnc1SCC(=O)NC(=O)NCc1ccco1 | inactive | –
CN(C)S(=O)(=O)c1cccc(NC(=O)c2cc([N+](=O)[O-])ccc2N2CCCCC2)c1 | – | inconclusive: 31.8% [activator]
CCc1ccccc1N(CC(=O)NCc1ccco1)C(=O)CCC(=O)Nc1ccccn1 | inconclusive: 17.8 µM [inhibitor, single point] | –
COc1ccc(S(=O)(=O)NCC(=O)NCc2cc(=O)n(C)c(=O)n2C)cc1 | inconclusive: 22.4 µM [inhibitor, single point] | –
CC(C)n1cc(C(=O)c2ccccc2O)cc(C#N)c1=O | inconclusive: 100 µM [inhibitor, partial curve] | –
N/C(=N\OC(=O)/C=C/c1ccccc1)c1ccc(Br)cc1 | inconclusive: 100 µM [inhibitor, single point] | –
CCCC(c1nnnn1CC(=O)OCC)N(Cc1cc2ccc(C)cc2[nH]c1=O)C1CCCC1 (centres undefined) | inactive | –
CCCNC(=O)CN1C(=O)NC2(CCCc3cc(OC)ccc32)C1=O (centres undefined) | inconclusive: 79.4 µM [inhibitor, single point] | –
CC(C)CN1C(=O)C(=O)N(CC(=O)NC2CCCc3ccccc32)C1=O (centres undefined) | inactive | –
COc1ccc(OCc2cc(C(=O)O)c(C)o2)cc1 | inconclusive: 200 µM [inhibitor, partial curve] | –
COc1ccc(C(NC(=O)c2cccc(F)c2)c2ccccc2)cc1 (centres undefined) | inactive | –
